# Experimental data from US5667764A, “Compounds, compositions and methods for binding bio-affecting substances to surface membranes of bio-particles” (Zynaxis, Inc., priority 1992, dated 1997).
# At least one read-out could not be matched to a standard name with certainty.
# System: rabbit red blood cells
# Experiment: In vivo stability of conjugate on red blood cells
# Conditions: 10 μM labeling, reinjected
# Description: To study the in vivo characteristics of red blood cells labeled with the conjugate of Example 3d., above, 0.5 ml of fresh anticoagulated blood from each of 2 rabbits was labeled with the conjugate (final concentration, 10 μM) and injected back in the same rabbit from which the blood was taken. After the conjugate labeling but prior to injection, an aliquot of labeled cells was examined by flow cytometry to insure adequate labeling. Following in vivo administration of the labeled cells, blood samples were removed at 30 minutes, and then 1, 2, 3, 4, and 7 days and examined by flow cytometry for fluorescent cells.
smiles,measurement,value
CCCCCCCCCCCCCCCCCCCCCC[N+]1=C(C=CC=C2N(CCCCCCCCCCCCCC)c3ccc(CNC(=O)c4ccc(C(=O)NCCCC[C@H](NC(=O)[C@@H]5CCCN5C(=O)[C@@H](N)CCCNC(=N)N)C(=O)N5CCC[C@H]5C(=O)N[C@@H](CCC(N)=O)C(=O)N[C@@H](CCC(N)=O)C(=O)N[C@@H](Cc5ccccc5)C(=O)N[C@@H](Cc5ccccc5)C(=O)NCC(=O)N[C@@H](CC(C)C)C(=O)N[C@@H](CCSC)C(N)=O)cc4)cc3C2(C)C)C(C)(C)c2ccccc21 [conjugate of Example 3d],Half-life of fluorescence associated with labeled cells in vivo,120 to 140 h
